Measured values as given in PubChem BioAssay AID540276 (National Center for Advancing Translational Sciences (NCATS), 2011).
The campaign covered roughly 300,000 compounds. About 5,400 (1.8%) were called active. The shares of active, inactive and inconclusive entries below differ from those in the screen. Calls come from the whole dose curve; tested in HEK293 cells. Where the call is inconclusive, the potency comes from a doubtful curve fit.

Experiment: qHTS for inhibitors of binding or entry into cells for Marburg Virus
Settings: Marburg virus pseudotyped entry inhibition, cell reporter; activity change, negative = inhibition: at 37.8 µM (top of the series) unless noted
% is set by controls: 0 for no effect and ±100 for the full control effect; potency is the fitted concentration of half-maximal effect.

Row | Structure (SMILES) | Potency | activity change, negative = inhibition
1 | O=C(N/N=C/c1ccccn1)c1cc(-c2ccc(Cl)cc2)nc2ccccc12 | inconclusive: 31.6 µM [inhibitor, partial curve, poor fit] | 
2 | CCNC(=O)CC1C(=O)N(c2ccc(F)cc2)C(=O)N1CCC(C)C (stereo not drawn) |  | inactive: 6.42%
3 | CCOc1ccc(NC(=O)c2cc(-c3ccc(C)c(F)c3)on2)c([N+](=O)[O-])c1 | inconclusive: 14.1 µM [inhibitor, single point] | 
4 | Cc1cccc(C)c1OCCn1c(CCNC(=O)C2CCCCC2)nc2ccccc21 | inconclusive: 35.5 µM [inhibitor, single point] | 
5 | NC(=O)c1nsc(C(=O)N(CC(=O)NCc2ccc(F)cc2)Cc2ccco2)c1N | inconclusive: 6.31 µM [inhibitor, partial curve, poor fit] | 
6 | O=C(Nc1nnc(C2=COCCO2)o1)c1ccc(Cl)cc1 |  | inactive: 3.85%
7 | COc1ccc(C(=O)Oc2c(Sc3ccccc3)c(C)nn2-c2ccccc2)c(OC)c1 | inconclusive: 7.08 µM [inhibitor, full curve] | 
8 | Cc1ccc(NC(=O)c2ccc(Cn3cc(Br)cn3)o2)cc1 |  | inactive: 1.64%
9 | CC1([N+](=O)[O-])COC(c2cccc3ccccc23)OC1 (stereo not drawn) | inconclusive: 5.62 µM [inhibitor, single point] | 
10 | O=C(CSc1nc(-c2ccccc2)c(-c2ccccc2)o1)NCCCO | inconclusive: 35.5 µM [inhibitor, single point] | 
11 | O=C(Nc1cccn2ncnc12)c1ccc(Cl)cc1 | inconclusive: 32.6 µM [activator, single point] | 
12 | O=C(CSc1nc2ccccc2c(=O)n1-c1ccccc1F)Nc1ccc2c(c1)CCC2 | inconclusive: 32.6 µM [inhibitor, single point] | 
13 | Cc1ccc(Oc2nc(-c3cccnc3)nc3ccccc23)c([N+](=O)[O-])n1 | inconclusive: 5.01 µM [inhibitor, partial curve] | 
14 | COc1ccccc1NC(=O)Cn1c(=O)n(-c2ccccc2Cl)c(=O)c2sc3ccccc3c21 |  | inactive: -12.6% [at 46.1 µM]
15 | O=C(CC1S/C(=N/N=C2CCCCCC2)NC1=O)Nc1ccccc1C(F)(F)F (stereo not drawn) |  | inactive: -0.924% [at 46.1 µM]
16 | CC(C)Cn1c(SCC(=O)N2CCN(S(=O)(=O)c3ccccc3)CC2)nc2ccccc21 | inconclusive: 25.9 µM [inhibitor, single point] | 
17 | O=C(OCC(=O)C12CC3CC(CC(C3)C1)C2)c1cccnc1Cl |  | inactive: 26.6%
18 | O=C(Cn1ncc2c3ccccc3n(Cc3ccccc3)c2c1=O)N1CCCCCC1 |  | inactive: 5.83% [at 46.1 µM]
19 | O=[N+]([O-])c1ccc2c(OCc3nnc(-c4ccccc4Br)o3)ncnc2c1 |  | inactive: -15.5% [at 46.1 µM]
20 | CCCS(=O)(=O)c1c(S(=O)(=O)CCC)c2cc(C(C)(C)C)ccn2c1C(=O)c1ccc(OC)c(OC)c1 | inconclusive: 8.91 µM [inhibitor, partial curve, poor fit] | 
21 | N#CCSc1nnc(-c2ccc3c(c2)OCO3)o1 | inconclusive: 35.5 µM [activator, single point] | 
22 | CC(C)Oc1cccc(C(=O)NC2=NCCS2)c1 |  | inactive: -14%
23 | Cc1cccc(CC(Cc2nc3ccccc3[nH]2)c2nc3ccccc3[nH]2)c1 (stereo not drawn) | inconclusive: 12.6 µM [inhibitor, partial curve, poor fit] | 

Row | Structure (SMILES) | Potency | activity change, negative = inhibition
24 | CCOc1ccc(N2C(=O)c3cccnc3C2Nc2ccc(Cl)cc2)cc1 (stereo not drawn) | inconclusive: 0.146 µM [inhibitor, single point] | 
25 | O=c1c2ccccc2nc(/C=C/c2ccc([N+](=O)[O-])cc2)n1CCCO | inconclusive: 35.5 µM [inhibitor, single point] | 
26 | COc1ccccc1CNC(=O)c1cc2sccc2n1Cc1ccc(F)cc1 | inconclusive: 11.2 µM [inhibitor, partial curve, poor fit] | 
27 | CCOC(=O)Cn1c(=O)c2c(nc(N3CCCCC3)n2Cc2ccccc2)n(C)c1=O | inconclusive: 7.08 µM [inhibitor, partial curve, poor fit] | 
28 | NC(=S)N/N=C/c1ccccc1 |  | inactive: 3.27%
29 | Cc1cccc(N2CCN(C(=O)c3ccc4ncsc4c3)CC2)c1C | inconclusive: 5.01 µM [inhibitor, single point] | 
30 | O=c1c2ccccc2nc(SCc2nc3ccccc3s2)n1Cc1ccco1 | inconclusive: 29.1 µM [inhibitor, single point] | 
31 | Cc1cc(C(=O)NCC(=O)OC(C(=O)Nc2cc(C(F)(F)F)ccc2Cl)c2ccccc2)ccc1[N+](=O)[O-] (stereo not drawn) | inconclusive: 35.5 µM [inhibitor, single point] | 
32 | Cc1ccc(C(=O)N/N=C/C=C/c2ccccc2)o1 |  | inactive: 22.9% [at 46.1 µM]
33 | O=S(=O)(c1ccc(F)cc1)n1ccc(-c2cccc(OCc3c(F)cccc3Cl)c2)n1 | inconclusive: 6.51 µM [activator, single point] | 
34 | O=C(CSc1c2c(nc3ccc(Cl)cc13)CCCC2)NCc1ccco1 | inconclusive: 35.5 µM [inhibitor, single point] | 
35 | O=C(CSc1nnc(-c2ccc(O)cc2)o1)Nc1ccccc1 | inconclusive: 15.8 µM [inhibitor, single point] | 
36 | CN(C(=O)COC(=O)c1ccc(Cl)nc1)C1CCS(=O)(=O)C1 (stereo not drawn) | inconclusive: 0.562 µM [activator, single point] | 
37 | CCSc1ccccc1C(=O)n1nnc2ccccc21 |  | inactive: -21.1%
38 | Cc1cccc(C(=O)OCC(=O)N2CC(C)CC(C)C2)c1C (stereo not drawn) | inconclusive: 31.6 µM [inhibitor, single point] | 
39 | CCn1c(=O)cc(SCC(=O)N2CCN(C3CCCCC3)CC2)c2ccccc21 | inactive | 
40 | Cn1c(N2CCOCC2)c(/C=N/OC(=O)c2ccc(F)cc2)c2ccccc21 | inconclusive: 2.31 µM [inhibitor, full curve, poor fit] | 
41 | Cn1cnnc1SCC(=O)Nc1cc(S(=O)(=O)N2CCCCCC2)ccc1Cl | inconclusive: 3.98 µM [activator, full curve, poor fit] | 
42 | CC(C)CCNC(=O)CCCOc1cc(=O)n(C)c2ccccc12 |  | inactive: -5.18%
43 | Cc1ccc(N2C(=O)SC(Cc3ccccc3)C2=O)cc1 (stereo not drawn) | inconclusive: 2 µM [inhibitor, full curve] | 
44 | CC(Oc1cccc(Cl)c1)C(=O)Nc1cc(S(=O)(=O)N2CCOCC2)ccc1N1CCCCC1 (stereo not drawn) | inconclusive: 3.55 µM [inhibitor, partial curve, poor fit] | 
45 | O=C(c1ccccc1[N+](=O)[O-])N1CCC(Cc2ccccc2)CC1 | inconclusive: 0.73 µM [activator, partial curve] | 
46 | CCC(=O)Nc1ccc(N2CCCCC2)cc1 |  | inactive: 16.8%

Row | Structure (SMILES) | Potency | activity change, negative = inhibition
47 | COc1cccc(-n2c(SCC(=O)Nc3ccc4c(c3)CCC4)nc3ccccc3c2=O)c1 | inconclusive: 35.5 µM [inhibitor, single point] | 
48 | CCOc1ccc(C(=O)OCC(=O)NC(C)C)cc1 |  | inactive: 5.19% [at 46.1 µM]
49 | COc1ccc(Cc2nnc(Nc3ccccc3OC)[nH]c2=O)cc1 |  | inactive: 7.19% [at 46.1 µM]
50 | Cc1nc(C)c(-c2csc(NCc3ccccc3)n2)s1 |  | inactive: -10.9%
51 | Oc1ccc(-c2nc3ccccc3nc2-c2ccc(O)cc2O)c(O)c1 | inconclusive: 5.62 µM [inhibitor, single point] | 
52 | Cc1ncc([N+](=O)[O-])n1CCOC(=O)Nc1ccc([N+](=O)[O-])cc1 | inconclusive: 2 µM [inhibitor, partial curve, poor fit] | 
53 | COCCn1c(SCC(=O)NC2CCCCC2)nnc1-c1ccncc1 | inconclusive: 15.8 µM [activator, single point] | 
54 | Cc1ccc(Cc2nnc3n(-c4ccccc4)nc(C(=O)c4ccccc4)n3c2=O)cc1 | inconclusive: 29.1 µM [inhibitor, single point] | 
55 | CCOc1cc(CNCCCN2CCOCC2)ccc1OCC(=O)NC(C)(C)C | inconclusive: 1.41 µM [inhibitor, partial curve, poor fit] | 
56 | Cc1cc(Cl)ccc1NC(=O)COC(=O)c1cc([N+](=O)[O-])ccc1N1CCOCC1 | inconclusive: 8.91 µM [inhibitor, partial curve, poor fit] | 
57 | Cc1c(C2(c3c(C)n(C)n(-c4ccccc4)c3=O)C(=O)Nc3ccc(F)cc32)c(=O)n(-c2ccccc2)n1C |  | inactive: -8.15%
58 | CCN(c1cccc(C)c1)C(CNS(=O)(=O)c1ccccc1)c1ccccc1 (stereo not drawn) | inconclusive: 35.5 µM [inhibitor, single point] | 
59 | Nc1nc(SCC(=O)c2cc(F)ccc2F)n[nH]1 |  | inactive: 1.77% [at 46.1 µM]
60 | Cc1ccc(C2NC(=O)c3ccccc3N2)c(C)c1 (stereo not drawn) | inconclusive: 0.447 µM [inhibitor, full curve] | 
61 | CC(C)CCn1c(=O)c2ccccc2n2c(CN(C)Cc3ccccc3)nnc12 | inconclusive: 23.1 µM [inhibitor, single point] | 
62 | O=C1c2ccccc2C(Nc2ccccc2)N1Cc1ccc2c(c1)OCO2 (stereo not drawn) | inconclusive: 6.31 µM [inhibitor, full curve] | 
63 | CC(OC(=O)C1CCN(S(=O)(=O)c2ccc(Cl)cc2)CC1)C(=O)N1CCc2ccccc21 (stereo not drawn) | inconclusive: 35.5 µM [inhibitor, single point] | 
64 | CCC(C)NCCOCCOc1ccc(Cl)c2ccccc12 (stereo not drawn) | inconclusive: 2.51 µM [inhibitor, full curve, poor fit] | 
65 | O=C(NCc1ccco1)c1cc(-c2cccnc2)nc2ccccc12 | inconclusive: 25.9 µM [inhibitor, partial curve, poor fit] | 
66 | N#Cc1ccccc1CCN1C(=O)c2ccccc2C1=O |  | inactive: 0.898% [at 46.1 µM]
67 | CCCCN(C)S(=O)(=O)c1ccc(C(=O)Nc2nnc(C3=COCCO3)o2)cc1 | inconclusive: 35.5 µM [inhibitor, single point] | 
68 | Cc1ccc(S(=O)(=O)N(CC(=O)N2CCC(C)CC2)Cc2ccccc2F)cc1 | inconclusive: 14.6 µM [inhibitor, partial curve, poor fit] | 

Taken from above.
Potency, `Cc1ncc([N+](=O)[O-])n1CCOC(=O)Nc1ccc([N+](=O)[O-])cc1` is entered as inconclusive: 2 µM [inhibitor, partial curve, poor fit]
activity change, negative = inhibition, `COc1ccc(Cc2nnc(Nc3ccccc3OC)[nH]c2=O)cc1` is entered as inactive: 7.19% [at 46.1 µM]
